The target in assay [1] is T1, Rab10-(GGGGS)13-mBioID2-HA fusion protein (mouse) (UniProt P61027).
T1 sequence: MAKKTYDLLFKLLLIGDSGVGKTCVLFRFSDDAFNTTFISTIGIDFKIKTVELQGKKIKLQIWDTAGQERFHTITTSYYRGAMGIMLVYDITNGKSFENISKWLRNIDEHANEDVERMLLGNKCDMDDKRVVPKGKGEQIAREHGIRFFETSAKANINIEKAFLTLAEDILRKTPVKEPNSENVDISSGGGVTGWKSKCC
Description: proximity labelling; BioID: NIH 3T3 Rab10-BioID2-HA cells in 50 uM biotin for 18 h, uninfected or infected with Δm138-MCMV (MOI 10; 6 hpi and 18 hpi); RIPA lysates precipitated overnight at 4°C with NeutrAvidin agarose, stringent washes (1% SDS, 500 mM NaCl, 250 mM LiCl); biotinylated proteins detected by Western blot.

By UniProt entry, the sequences of proteins in these tests, tags left out.
UniProt Q69ZW3: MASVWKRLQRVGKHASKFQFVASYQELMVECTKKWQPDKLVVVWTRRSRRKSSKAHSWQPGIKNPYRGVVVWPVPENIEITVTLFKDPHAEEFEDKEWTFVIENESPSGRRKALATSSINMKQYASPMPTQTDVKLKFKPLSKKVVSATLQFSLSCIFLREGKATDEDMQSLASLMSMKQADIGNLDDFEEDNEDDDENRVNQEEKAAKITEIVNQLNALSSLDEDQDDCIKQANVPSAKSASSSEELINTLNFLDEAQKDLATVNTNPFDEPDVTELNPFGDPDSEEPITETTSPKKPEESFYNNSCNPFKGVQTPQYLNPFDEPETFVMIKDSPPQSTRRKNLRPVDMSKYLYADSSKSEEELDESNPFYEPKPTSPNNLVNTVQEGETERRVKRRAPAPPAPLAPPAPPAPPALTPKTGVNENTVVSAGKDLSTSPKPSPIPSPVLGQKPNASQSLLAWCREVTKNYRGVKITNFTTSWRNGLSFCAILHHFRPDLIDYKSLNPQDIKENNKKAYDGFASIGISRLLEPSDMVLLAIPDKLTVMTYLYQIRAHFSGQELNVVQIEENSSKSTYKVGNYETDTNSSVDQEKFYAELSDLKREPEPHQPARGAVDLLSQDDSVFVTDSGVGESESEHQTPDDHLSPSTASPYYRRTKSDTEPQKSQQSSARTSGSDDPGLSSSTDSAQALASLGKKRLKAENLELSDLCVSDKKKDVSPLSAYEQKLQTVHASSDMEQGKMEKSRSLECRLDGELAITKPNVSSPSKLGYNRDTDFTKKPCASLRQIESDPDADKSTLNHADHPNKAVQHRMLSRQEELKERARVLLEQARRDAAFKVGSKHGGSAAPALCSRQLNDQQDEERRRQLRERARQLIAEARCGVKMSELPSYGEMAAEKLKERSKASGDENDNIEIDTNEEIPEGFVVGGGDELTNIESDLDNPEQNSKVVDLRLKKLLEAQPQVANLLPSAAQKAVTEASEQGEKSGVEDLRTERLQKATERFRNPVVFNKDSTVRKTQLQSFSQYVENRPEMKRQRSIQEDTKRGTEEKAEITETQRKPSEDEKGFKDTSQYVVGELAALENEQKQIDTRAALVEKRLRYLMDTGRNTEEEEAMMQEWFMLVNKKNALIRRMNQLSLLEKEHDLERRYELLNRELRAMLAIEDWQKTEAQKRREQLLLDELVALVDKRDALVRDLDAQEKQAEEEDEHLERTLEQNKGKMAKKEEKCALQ

Assay [2] has as its target T1, Rab10-(GGGGS)13-mBioID2-HA fusion protein (mouse). Described as above. This is another data set of the same source.

Where two headings read alike, the source gives them in different places. Results are given in words; binding and its absence hold for the method and conditions named. Binding seen in cells or lysates may run through a third protein. Here binding means that the protein was enriched with, or labelled near, the bait; the list need not be complete. Sequences can lack the tags named with a protein.

For the molecule EHBP1 (from UniProt Q69ZW3 1-1231), in assay [1], the binding entry was “binds”.

B1: ACAP2 (protein, UniProt Q6ZQK5 1-770)
chain: MKMTVDFEECLKDSPRFRAALEEVEGDVAELELKLDKLVKLCIAMIDTGKAFCVANKQFMNGIRDLAQYSSNDAVVETSLTKFSDSLQEMINFHTILFDQTQRSIKAQLQNFVKEDLRKFKDAKKQFEKVSEEKENALVKNAQVQRNKQHEVEEAANILTATRKCFRHIALDYVLQINVLQSKRRSEILKSMLSFMYAHLAFFHQGYDLFSELGPYMKDLGAQLDRLVVDAAKEKREMEQKHSTIQQKDFSSDDSKLEYNVDAANGIVMEGYLFKRASNAFKTWNRRWFSIQNNQLVYQKKFKDSPTVVVEDLRLCTVKHCEDIERRFCFEVVSPTKSCMLQADSEKLRQAWIKAVQTSIATAYREKGDESEKLDKKSSPSTGSLDSGNESKEKLLKGESALQRVQCIPGNTSCCDCGLADPRWASINLGITLCIECSGIHRSLGVHFSKVRSLTLDTWEPELLKLMCELGNDVINRVYEAKLEKMGVKKPQPGQRQEKEAYIRAKYVERKFVDKYSALLSPSEQEKRIISKSCEDQRLSHARASVHTPVKSNDSGIQQCSEDGRESLPSTVSANSLYEPEGERQESSVFLDSKHLNPGLQLYRASYEKNLPKMAEALAHGADVNWANSDENQATPLIQAVLGGSLVTCEFLLQNGANVNQRDVQGRGPLHHATVLGHTGQVCLFLKRGANQHATDEEGKDPLSIAVEAANADIVTLLRLARMNEEMRESEGLYGQPGDETYQDIFRDFSQMASNNPEKLNRFQQDSQKF
On to B1, for which, in assay [2], the binding result is “binds weakly”.

B2: Rabin8 (protein, UniProt Q68EF0 1-428)
chain: MANDPLEGFHEVNLASPTSPDLLGVCDPGTQEQTTSPSVIYRPHPSTLCAAPLQANALDLSDLPTQPVYSSPRHFNCAEVSNISAHAPDPASSVPSAVASGLTKLTSRKDSCNAEREFLQGATITEASAGNDDIFGLSTDSLSRLRSPSVLEVREKGYERLKEELAKAQREAHKMVREANVKQATAEKQLKEAQGKIDVLQAEVAALKTLVLSSSPTSPTQEPLAAAKTPFKRGHTRNKSTSSAMGGSHQDLSVIQPIVKDCKEADLSLYNEFRSWKDEPTMDRTCPFLDKIYQEDIFPCLTFAKSELASAVLEAVENNTLSIEPVGLQPIRFVKASAVECGGPKKCALTGQSKPCRHRIRLGDSSCCYYISPFCRYRITSVCNFFTYIRYIQQGLVKQQDVDQMFWEVMQLRKEMSLAKLGYFKEEL
With B2, the binding entry in assay [2] is on record as “binds weakly”.

B3: AS160 (protein, UniProt Q8BYJ6 1-1307)
chain: MESPSCIQDEPFPHPLEPEPSAPAQPGATKPGDKRFRLWYVGGSCLDRRTTLPMLPWLMAEIRRRSQKPDAGGCGAPAAREVILVLSAPFLRCVPAPGAGVGGGAGSGAVQPNTGVFIFEHKAQHISRFIHNSHDLTYFAYLIKAQPDDPESQMACHVFRATDPNQVPDVISSIRQLSKAAMKEDSKPSKDNEDAFYNSQKFEVLYCGRVIVTHKKAPSSLIDDCKDKFSLHEQQRLKLQGERGGDPGDEMGVLEVESPVSPDDSLPEKADGTVNSPRALPSLASLPALASQPALASSRVCFPERILEDCGFDEQQEFRSRCSSVTGVMQKKVHENNQKTQPRRRHASAPSHVQPSDSEKNRTMLFQVGRFEINLISPDTKSVVLEKNFKDISSCSQGIKHVDHFGFICRESPEPGLSQYICYVFQCANESLVDEVMLTLKQAFSTAAALQSAKTQIKLCETCPMHSLHKLCERIEGLYPPRAKLVIQRHLSSLTDNEQADIFERVQKMKPISDQEENELVILHLRQLCEAKQRTHVHIGEGPAIISNSTIPENVTSGGRFKLDVLKNKAKRSLTSSLENIFSRGANRMRGRLGSMDSFERANSLASEKDFSPGDSPPGTPPASPLSSAWHAFPEEDSDSPQFRRRAHTFSHPPSSSRRKLNLQDGKAHGLRSPLLRQSSSEQCSIVPSARRMYKESNSSCSLPSLHTSFSAPSFTAPSFLKSFYQNSGRLSPQYENEIRQDTASESSDGEGRKRTSSTCSNESLNAGGTPVTPRRVSWRQRIFLRVASPVNKSPSAMQQQKDGLDRTELLPLSPLSPTMEEEPLIIFLSGDEDTEKVEEKKKSKELKSLWKKAIHQQILLLRMEKENQKLEEARRDELQSRKVKLDYEEVGTCQKEILIAWDKKLLNCRTKIRCDMEDIHTSLKEGVPKSRRGEIWQFLALQYRLRHRLPNKHQPPDTSYKELLKQLTAQQHAILVDLGRTFPTHPYFSVQLGAGQLSLFNLLKAYSLLDKEVGYCQGISFVAGVLLLHMSEEQAFEMLKFLMYDLGFRKQYRPDMMSLQIQMYQLSRLLHDYHRELYNHLEENEISPSLYAAPWFLTLFASQFPLGFVARVFDIIFLQGTEVIFKVALSLLSSQEALIMECENFENIVEFLKSTLPDMNTTEMEKIITQVFEMDISKQLHAYEVEYHVLQDELLESSYACEDNESLEKLERANNQLKRQNMDLLEKLQVAHAKIQALESNLETLLTRETKMKALIRTLEQDKMAYQKTVEQIRKLLPADALANCELLLKDLTHPTNDKAKAGNKP
Regarding B3, the binding entry in assay [2] is reported as “binds weakly”.
